Measured values published in paper PMC11549141.
Results are given in words; binding and its absence hold for the method and conditions named. For some of these results: In cells and extracts the contact can be indirect. For some of these results: Sequences can lack the tags named with a protein.

Key:
[1] = molecular target: IDEF1 fused with the GAL4 DNA binding domain (rice); assay: two-hybrid; SLR1 forms in pGADT7 (GAL4 AD), transcription factors in pGBKT7 (GAL4 BD); S. cerevisiae Y2HGold; screening on SD/-Leu/-Trp/-Ade/-His; three individual colonies
[2] = molecular target: OSBZ8 fused with the GAL4 DNA binding domain (rice); assay: as above
[3] = molecular target: IDEF1 in YFC43 (BiFC) (rice); assay: split reporter; BiFC: SLR1 forms in YFN43, transcription factors in YFC43; co-infiltrated Nicotiana benthamiana leaves with P19; fluorescence microscopy 48-72 h after infiltration
[4] = molecular target: OSBZ8 in YFC43 (BiFC) (rice); assay: as above

B1: SLENDER RICE1 (SLR1) fused with the GAL4 activation domain (protein, UniProt Q7G7J6 1-625)
chain: MKREYQEAGGSSGGGSSADMGSCKDKVMAGAAGEEEDVDELLAALGYKVRSSDMADVAQKLEQLEMAMGMGGVSAPGAADDGFVSHLATDTVHYNPSDLSSWVESMLSELNAPLPPIPPAPPAARHASTSSTVTGGGGSGFFELPAAADSSSSTYALRPISLPVVATADPSAADSARDTKRMRTGGGSTSSSSSSSSSLGGGASRGSVVEAAPPATQGAAAANAPAVPVVVVDTQEAGIRLVHALLACAEAVQQENFAAAEALVKQIPTLAASQGGAMRKVAAYFGEALARRVYRFRPADSTLLDAAFADLLHAHFYESCPYLKFAHFTANQAILEAFAGCHRVHVVDFGIKQGMQWPALLQALALRPGGPPSFRLTGVGPPQPDETDALQQVGWKLAQFAHTIRVDFQYRGLVAATLADLEPFMLQPEGEADANEEPEVIAVNSVFELHRLLAQPGALEKVLGTVHAVRPRIVTVVEQEANHNSGSFLDRFTESLHYYSTMFDSLEGGSSGQAELSPPAAGGGGGTDQVMSEVYLGRQICNVVACEGAERTERHETLGQWRNRLGRAGFEPVHLGSNAYKQASTLLALFAGGDGYRVEEKEGCLTLGWHTRPLIATSAWRVAAA
For B1, the binding [1] was “no binding” and the binding [2] was “no binding”.

B2: SLENDER RICE1 (SLR1) in YFN43 (BiFC) (protein, UniProt Q7G7J6 1-625)
chain: B1 chain
For B2, the binding [3] was “no binding” and the binding [4] was “no binding”.
